In patent publication US20200339632 (published 2020):

Assay: general procedure: solution-phase peptide synthesis; PyBOP; MoO2Cl2/4-nitrobenzoic anhydride; VO(OTf)2/2,6-dinitrobenzoic anhydride
Conditions: coupling step

Substance: Fmoc-Asp(O^tBu)-D-Phe-ACHA-Arg(Mtr)-Gly-OCH3
- step yield: 68% yield
